No constants are given. Whether binding was seen depends on the method and setting. For some of these results: In cells and extracts the contact can be indirect. Some results given as binding are weak or reduced against the parent protein; the word gives no strength.
What was measured:
[1] = target: adenylyl cyclase-associated protein 1 (CAP1) of THP-1 cells (human) (UniProt Q01518); test: co-immunoprecipitation from THP-1 cells treated with resistin, western blot
[2] = target: adenylyl cyclase-associated protein 1 (CAP1) of THP-1 cells (human) (UniProt Q01518); test: mFc pull-down from THP-1 cell lysate, western blot with anti-CAP1
[3] = target: adenylyl cyclase-associated protein 1 (CAP1) of THP-1 cells (human) (UniProt Q01518); test: Fc-bead pull-down from THP-1 cell lysate, western blot with a-CAP1(M30)
rhCAP1 (human), Q01518 = target: T1, rhCAP1 (human), Q01518; test: ELISA, plate coated with rhCAP-1 2.5 ug/ml, detection with mFc-HRP Ab [B]; conditions: remark: other sources report otherwise
T1 chain: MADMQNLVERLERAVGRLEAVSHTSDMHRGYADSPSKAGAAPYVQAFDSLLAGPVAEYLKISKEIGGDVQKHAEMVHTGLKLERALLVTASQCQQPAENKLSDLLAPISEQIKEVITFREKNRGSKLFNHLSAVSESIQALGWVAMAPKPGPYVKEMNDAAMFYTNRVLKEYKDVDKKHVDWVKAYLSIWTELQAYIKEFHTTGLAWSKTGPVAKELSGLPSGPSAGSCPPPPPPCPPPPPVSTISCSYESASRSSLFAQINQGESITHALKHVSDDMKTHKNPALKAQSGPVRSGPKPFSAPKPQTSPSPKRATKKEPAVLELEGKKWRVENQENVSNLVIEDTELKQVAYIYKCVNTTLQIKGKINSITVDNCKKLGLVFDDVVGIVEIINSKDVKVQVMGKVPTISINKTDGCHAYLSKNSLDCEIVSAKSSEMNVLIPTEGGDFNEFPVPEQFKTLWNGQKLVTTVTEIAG

hResistin (from UniProt Q9HD89 19-108) (ligand)
binding [1]: binds

mFc-hResistin (from UniProt Q9HD89 19-108) (Fc fusion)
binding [2]: binds
binding [3]: binds

B1: mFc-hResistin, Q9HD89 19-108 (Fc fusion, human, UniProt Q9HD89 19-108, looked up, not shown: a dimerising Fc or GST)
chain: KTLCSMEEAINERIQEVAGSLIFRAISSIGLECQSVTSRGDLATCPRGFAVTGCTCGSACGSWDVRAETTCHCQCAGMDWTGARCCRVQP
binding (rhCAP1 (human), Q01518): binds

Reference: patent publication US20200157147A1 (SEOUL NATIONAL UNIVERSITY HOSPITAL, published 2020)
